From the supplement of paper PMC3741180, “A Novel High Throughput Biochemical Assay to Evaluate the HuR Protein-RNA Complex Formation” (PLoS ONE, 2013)
The list shows a part of the results. Most values lie within the scatter of the assay; repeated measurements hardly agree.

Chains of the proteins cited; added tags and fusions are not shown.
UniProt Q15717, whole entry: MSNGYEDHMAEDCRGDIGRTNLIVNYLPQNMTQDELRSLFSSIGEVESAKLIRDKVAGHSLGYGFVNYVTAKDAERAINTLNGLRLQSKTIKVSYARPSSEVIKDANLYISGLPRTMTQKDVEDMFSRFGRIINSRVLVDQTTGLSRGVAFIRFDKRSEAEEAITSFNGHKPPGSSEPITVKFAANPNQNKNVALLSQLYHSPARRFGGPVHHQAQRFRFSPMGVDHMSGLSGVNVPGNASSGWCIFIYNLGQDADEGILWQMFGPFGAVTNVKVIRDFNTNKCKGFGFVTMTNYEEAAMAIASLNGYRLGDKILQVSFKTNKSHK

The molecules below were run against HuR (ELAVL1) - TNFalpha ARE RNA complex (UniProt Q15717) (assay: AlphaScreen HuR-RNA complex signal Z-score relative to positive (Bi-TNF, DMSO) controls (Z-score (SD units of positive control)); higher = more complex signal). Settings: screen stage: primary screen; compound concentration: 25 nM.
In the case of `CN[C@@H]1[C@@H](O)[C@@H](O[C@@H]2[C@@H](O)[C@H](O[C@H]3OC(CN)=CC[C@H]3N)[C@@H](N)C[C@H]2N)OC[C@]1(C)O`, the “AlphaScreen HuR-RNA complex signal Z-score” value is reported as 31.7. In the case of `Cc1cc(NS(=O)(=O)c2ccc(N)cc2)no1`, the “AlphaScreen HuR-RNA complex signal Z-score” value is reported as 8.74. In the case of `C=C[C@@H](C1=CC(=O)C(OC)=C(OC)C1=O)c1ccccc1`, the “AlphaScreen HuR-RNA complex signal Z-score” value is reported as 3.48. With `O=C1CN(/N=C/c2ccc(-c3ccc([N+](=O)[O-])cc3)o2)C(=O)N1` the “AlphaScreen HuR-RNA complex signal Z-score” value was 0.85. In the case of `COc1cc(O)c2c(c1)C(=O)c1cc(C)cc(O)c1C2=O`, the “AlphaScreen HuR-RNA complex signal Z-score” value is reported as 0.89. For `CCOC(=O)n1ccn(C)c1=S`, the “AlphaScreen HuR-RNA complex signal Z-score” value was 4.12. In the case of `C[n+]1cccc(C(=O)[O-])c1`, the “AlphaScreen HuR-RNA complex signal Z-score” value is reported as 2.57. With `NS(=O)(=O)c1cc2c(cc1Cl)NCNS2(=O)=O` the “AlphaScreen HuR-RNA complex signal Z-score” value was -5.92. With `CC(=O)O[C@H]1CC[C@]2(C)[C@H]3CC=C4[C@@H]5CC(C)(C)CC[C@]5(C)CC[C@@]4(C)[C@]3(C)CC[C@H]2C1(C)C` [beta-AMYRIN ACETATE] the “AlphaScreen HuR-RNA complex signal Z-score” value was 2.99. With `COc1cc(/C=C/C(=O)O)ccc1O` the “AlphaScreen HuR-RNA complex signal Z-score” value was 1.64. `CN(C)CCc1c[nH]c2ccc(C[C@H]3COC(=O)N3)cc12` was tested, and the “AlphaScreen HuR-RNA complex signal Z-score” value was -0.866. `CN(C)CCC=C1c2ccccc2C=Cc2ccccc21` was tested, and the “AlphaScreen HuR-RNA complex signal Z-score” value was 1.06. With `O=c1[nH]c(=O)n([C@H]2C[C@H](O)[C@@H](CO)O2)cc1F` the “AlphaScreen HuR-RNA complex signal Z-score” value was 0.763. For `Nc1ccc(C(=O)Oc2ccccc2)c(O)c1`, the “AlphaScreen HuR-RNA complex signal Z-score” value was 0.323. For `CC1=CC(=O)CC(C)(C)C1(O)/C=C/C(C)=C\C(=O)O` (mixture of isomers) [ABSCISIC ACID (cis,trans; +/-)], the “AlphaScreen HuR-RNA complex signal Z-score” value was 0.458. `NC(=O)c1ncn([C@@H]2O[C@H](CO)[C@@H](O)[C@H]2O)c1N` was tested, and the “AlphaScreen HuR-RNA complex signal Z-score” value was 1. In the case of `CCC(=O)O[C@H]1[C@H](O[C@@H]2[C@@H](C)[C@H](O[C@H]3C[C@@](C)(OC)[C@@H](O)[C@H](C)O3)[C@@H](C)C(=O)O[C@H](CC)[C@@](C)(O)[C@H](O)[C@@H](C)C(=O)[C@H](C)C[C@@]2(C)O)O[C@H](C)C[C@@H]1N(C)C`, the “AlphaScreen HuR-RNA complex signal Z-score” value is reported as 1.54. In the case of `Nc1ncnc2c1ncn2[C@@H]1O[C@H](COP(=O)(O)O)[C@@H](O)[C@H]1O`, the “AlphaScreen HuR-RNA complex signal Z-score” value is reported as -0.00287. `O=C(O)c1cc(O)c2c(c1)[C@H]([C@H]1c3cc(C(=O)O)cc(O)c3C(=O)c3c(O[C@@H]4O[C@H](CO)[C@@H](O)[C@H](O)[C@H]4O)cccc31)c1cccc(O[C@@H]3O[C@H](CO)[C@@H](O)[C@H](O)[C@H]3O)c1C2=O` was tested, and the “AlphaScreen HuR-RNA complex signal Z-score” value was 0.314. In the case of `N[C@@H](COCc1ccccc1)C(=O)O`, the “AlphaScreen HuR-RNA complex signal Z-score” value is reported as 1.02. For `CC(c1cc2ccccc2s1)N(O)C(N)=O` (configuration not stated), the “AlphaScreen HuR-RNA complex signal Z-score” value was 1.44. For `C[C@@H]1C(=O)O[C@H]2C[C@@]34[C@H]5C[C@@H](C(C)(C)C)[C@]36[C@@H](OC(=O)[C@@H]6O)O[C@@]4(C(=O)O5)[C@]21O`, the “AlphaScreen HuR-RNA complex signal Z-score” value was 1.78. In the case of `COc1cc(O)c(C(C)=O)c(OC)c1`, the “AlphaScreen HuR-RNA complex signal Z-score” value is reported as 2.36. With `CN(C)CCCOc1nn(Cc2ccccc2)c2ccccc12` the “AlphaScreen HuR-RNA complex signal Z-score” value was 0.214. `CCCCCCCCCCCCCc1ccco1` was tested, and the “AlphaScreen HuR-RNA complex signal Z-score” value was 2.04. `OC[C@@H](O)[C@@H](O)[C@H](O)[C@@H](O)CO` was tested, and the “AlphaScreen HuR-RNA complex signal Z-score” value was -4.13. `CCCCC(=O)O[C@]1(C(=O)CO)[C@@H](C)C[C@H]2[C@@H]3CCC4=CC(=O)C=C[C@]4(C)[C@@]3(F)[C@@H](O)C[C@@]21C` was tested, and the “AlphaScreen HuR-RNA complex signal Z-score” value was 0.148. `CC(=O)OCC(=O)[C@@]1(O)CC[C@H]2[C@@H]3CCC4=CC(=O)CC[C@]4(C)[C@H]3C(=O)C[C@@]21C` was tested, and the “AlphaScreen HuR-RNA complex signal Z-score” value was -3.12. In the case of `Oc1ccc(O)cc1`, the “AlphaScreen HuR-RNA complex signal Z-score” value is reported as -8.16. With `CC1CCC(NC(=O)N(CCCl)N=O)CC1` (configuration not stated) the “AlphaScreen HuR-RNA complex signal Z-score” value was 0.306. In the case of `CC1=C2C(O)C(=O)OC3CC4C(C)(C)C(=O)C=C[C@]4(C)C(CC1)[C@]23C` (some centres not stated), the “AlphaScreen HuR-RNA complex signal Z-score” value is reported as -0.436. In the case of `CC(C)(O)CC[C@@H](O)[C@](C)(O)[C@H]1CC[C@@]2(O)C3=CC(=O)[C@@H]4C[C@@H](O)[C@@H](O)C[C@]4(C)[C@H]3CC[C@]12C`, the “AlphaScreen HuR-RNA complex signal Z-score” value is reported as -0.241. For `CCCc1cc(OC)c2c(c1)OCO2`, the “AlphaScreen HuR-RNA complex signal Z-score” value was 0.712. With `Nc1ccc(S(=O)(=O)Nc2ccc(Cl)nn2)cc1` the “AlphaScreen HuR-RNA complex signal Z-score” value was 0.729. For `COC1=C(O)C(=O)c2c(cc3oc(C(C)=O)c(O)c3c2O)C1=O`, the “AlphaScreen HuR-RNA complex signal Z-score” value was 0.5. For `Cc1ccc(/C(=C\CN2CCCC2)c2ccccn2)cc1`, the “AlphaScreen HuR-RNA complex signal Z-score” value was -3.02. For `CC(C)(O/N=C(\C(=O)N[C@@H]1C(=O)N2C(C(=O)[O-])=C(C[n+]3ccccc3)CS[C@H]12)c1csc(N)n1)C(=O)O`, the “AlphaScreen HuR-RNA complex signal Z-score” value was 2.07. `COc1ccc(C2CC(=O)c3ccc(OC)cc3O2)cc1` (configuration not stated) was tested, and the “AlphaScreen HuR-RNA complex signal Z-score” value was 0.732. `OC[C@H]1O[C@@H](OCCc2ccc(O)cc2)[C@H](O)[C@@H](O)[C@@H]1O` was tested, and the “AlphaScreen HuR-RNA complex signal Z-score” value was -0.391. In the case of `CNCCC=C1c2ccccc2CCc2ccccc21`, the “AlphaScreen HuR-RNA complex signal Z-score” value is reported as 0.49. With `CC(=O)O[C@H]1CC[C@]2(C)[C@H]3CC[C@@]4(C)[C@H](c5ccoc5)OC(=O)[C@H]5O[C@]54[C@]3(C)[C@H](OC(C)=O)C[C@H]2C1(C)C` [3beta-ACETOXYDEOXODIHYDROGEDUNIN] the “AlphaScreen HuR-RNA complex signal Z-score” value was 2.19. With `Cc1ccc2c(c1)CC[C@H]1CC(=O)CC[C@]21C` the “AlphaScreen HuR-RNA complex signal Z-score” value was 1.75.
